This passage reports binding results from paper PMC10576099, “Endothelial discoidin domain receptor 1 senses flow to modulate YAP activation” (Nature Communications, 2023).

Chains of the proteins cited; added tags and fusions are not shown. Residues count along the entry.
UniProt Q08345, residues 19-913: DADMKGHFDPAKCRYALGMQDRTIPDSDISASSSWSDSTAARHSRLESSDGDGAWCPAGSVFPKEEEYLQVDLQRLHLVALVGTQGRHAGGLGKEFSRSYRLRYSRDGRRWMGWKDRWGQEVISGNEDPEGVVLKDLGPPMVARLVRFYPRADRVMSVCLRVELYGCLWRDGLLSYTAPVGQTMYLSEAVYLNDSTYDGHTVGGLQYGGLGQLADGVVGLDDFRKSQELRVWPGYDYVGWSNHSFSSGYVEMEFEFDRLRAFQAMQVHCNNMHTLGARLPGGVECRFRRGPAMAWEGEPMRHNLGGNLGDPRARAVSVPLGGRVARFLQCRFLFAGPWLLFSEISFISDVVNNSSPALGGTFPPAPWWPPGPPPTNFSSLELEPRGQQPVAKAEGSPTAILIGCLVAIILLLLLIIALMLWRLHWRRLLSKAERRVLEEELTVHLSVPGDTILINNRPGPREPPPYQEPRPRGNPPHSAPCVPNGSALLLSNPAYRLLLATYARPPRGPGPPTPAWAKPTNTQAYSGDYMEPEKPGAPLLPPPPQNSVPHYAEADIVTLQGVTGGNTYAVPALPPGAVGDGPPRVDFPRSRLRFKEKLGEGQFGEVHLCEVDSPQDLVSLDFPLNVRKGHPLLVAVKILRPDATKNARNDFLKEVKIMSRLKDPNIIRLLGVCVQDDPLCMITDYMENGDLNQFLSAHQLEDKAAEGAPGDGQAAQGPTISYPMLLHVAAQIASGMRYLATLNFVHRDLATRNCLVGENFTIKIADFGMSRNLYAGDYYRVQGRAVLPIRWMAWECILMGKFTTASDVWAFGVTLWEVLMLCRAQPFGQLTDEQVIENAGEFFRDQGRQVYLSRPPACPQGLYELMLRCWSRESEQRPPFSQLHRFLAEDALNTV
UniProt P04792: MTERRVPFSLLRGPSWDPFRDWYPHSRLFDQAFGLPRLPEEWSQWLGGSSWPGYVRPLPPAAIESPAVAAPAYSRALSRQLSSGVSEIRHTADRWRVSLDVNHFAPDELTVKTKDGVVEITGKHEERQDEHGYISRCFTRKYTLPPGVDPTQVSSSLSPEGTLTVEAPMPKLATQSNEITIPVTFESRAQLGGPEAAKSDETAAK
UniProt P62258: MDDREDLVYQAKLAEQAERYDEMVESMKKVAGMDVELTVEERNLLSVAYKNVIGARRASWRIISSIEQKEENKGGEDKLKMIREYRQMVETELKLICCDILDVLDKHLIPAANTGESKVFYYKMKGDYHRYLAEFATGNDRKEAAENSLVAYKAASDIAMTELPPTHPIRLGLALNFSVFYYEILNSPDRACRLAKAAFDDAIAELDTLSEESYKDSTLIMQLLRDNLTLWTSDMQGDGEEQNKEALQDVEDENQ

These are yes or no findings as the source states them, for the method shown. In cells and extracts the contact can be indirect. Here binding means that the protein was enriched with, or labelled near, the bait; the list need not be complete. For some of these results: No binding means not detected with the bait.

Assay [1] concerns the target discoidin domain receptor 1 (DDR1), endogenous in HUVECs (human (endogenous in HUVECs)) (UniProt Q08345). The assay is described as follows: affinity purification with mass spectrometry; HUVEC lysates (static, PS or OS for 3 h), anti-DDR1 monoclonal antibody (Santa Cruz sc-374618), SDS-PAGE, mass spectrometry.
Assay [2] shares this target. The experiment in a line: affinity purification with mass spectrometry; as a5, samples from HUVECs in OS or static culture only.

For the molecule “HSPB1, endogenous in HUVECs (from UniProt P04792 1-205)”, the binding entry in assay [1] is “binds”.

As for “YWHAE (14-3-3ε), endogenous in HUVECs (from UniProt P62258 1-255)”, the binding result in assay [1] is listed as “binds”.

B1: YWHAQ, endogenous in HUVECs (protein, UniProt P27348 1-245)
chain: MEKTELIQKAKLAEQAERYDDMATCMKAVTEQGAELSNEERNLLSVAYKNVVGGRRSAWRVISSIEQKTDTSDKKLQLIKDYREKVESELRSICTTVLELLDKYLIANATNPESKVFYLKMKGDYFRYLAEVACGDDRKQTIDNSQGAYQEAFDISKKEMQPTHPIRLGLALNFSVFYYEILNNPELACTLAKTAFDEAIAELDTLNEDSYKDSTLIMQLLRDNLTLWTSDSAGEECDAAEGAEN
For B1, the binding result is given as “binds” in assay [1] and “no binding (only HUVECs in OS or static culture)” in assay [2].
